Reference: the supplement of paper PMC10060354, “Discovery of a small molecule ligand of FRS2 that inhibits invasion and tumor growth” (Cellular Oncology, 2022)

By UniProt entry, the sequences of proteins in these tests, tags left out. Where a name states a change or a piece, a line headed by the entry shows the natural chain unless it says otherwise.
UniProt O75143: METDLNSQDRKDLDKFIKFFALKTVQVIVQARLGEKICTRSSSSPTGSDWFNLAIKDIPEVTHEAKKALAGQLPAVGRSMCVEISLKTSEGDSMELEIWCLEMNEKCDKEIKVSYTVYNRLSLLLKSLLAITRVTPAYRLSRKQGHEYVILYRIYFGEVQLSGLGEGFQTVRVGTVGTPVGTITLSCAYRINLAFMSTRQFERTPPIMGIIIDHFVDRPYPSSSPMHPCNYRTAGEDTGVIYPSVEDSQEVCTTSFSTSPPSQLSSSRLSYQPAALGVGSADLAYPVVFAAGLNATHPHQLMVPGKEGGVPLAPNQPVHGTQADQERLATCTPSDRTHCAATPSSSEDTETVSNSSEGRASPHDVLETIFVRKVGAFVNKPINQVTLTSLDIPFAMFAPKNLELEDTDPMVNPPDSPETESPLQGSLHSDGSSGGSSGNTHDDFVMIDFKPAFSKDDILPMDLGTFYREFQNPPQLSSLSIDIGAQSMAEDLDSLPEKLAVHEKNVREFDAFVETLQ
UniProt P25789: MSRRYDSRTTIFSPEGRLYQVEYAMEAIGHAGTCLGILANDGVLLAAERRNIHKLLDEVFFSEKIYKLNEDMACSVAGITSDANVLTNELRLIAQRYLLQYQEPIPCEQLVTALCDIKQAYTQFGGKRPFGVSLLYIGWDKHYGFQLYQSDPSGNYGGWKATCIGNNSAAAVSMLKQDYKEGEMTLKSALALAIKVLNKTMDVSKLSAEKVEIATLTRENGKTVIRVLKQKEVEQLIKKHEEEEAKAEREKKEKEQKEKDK
UniProt Q9C0D2: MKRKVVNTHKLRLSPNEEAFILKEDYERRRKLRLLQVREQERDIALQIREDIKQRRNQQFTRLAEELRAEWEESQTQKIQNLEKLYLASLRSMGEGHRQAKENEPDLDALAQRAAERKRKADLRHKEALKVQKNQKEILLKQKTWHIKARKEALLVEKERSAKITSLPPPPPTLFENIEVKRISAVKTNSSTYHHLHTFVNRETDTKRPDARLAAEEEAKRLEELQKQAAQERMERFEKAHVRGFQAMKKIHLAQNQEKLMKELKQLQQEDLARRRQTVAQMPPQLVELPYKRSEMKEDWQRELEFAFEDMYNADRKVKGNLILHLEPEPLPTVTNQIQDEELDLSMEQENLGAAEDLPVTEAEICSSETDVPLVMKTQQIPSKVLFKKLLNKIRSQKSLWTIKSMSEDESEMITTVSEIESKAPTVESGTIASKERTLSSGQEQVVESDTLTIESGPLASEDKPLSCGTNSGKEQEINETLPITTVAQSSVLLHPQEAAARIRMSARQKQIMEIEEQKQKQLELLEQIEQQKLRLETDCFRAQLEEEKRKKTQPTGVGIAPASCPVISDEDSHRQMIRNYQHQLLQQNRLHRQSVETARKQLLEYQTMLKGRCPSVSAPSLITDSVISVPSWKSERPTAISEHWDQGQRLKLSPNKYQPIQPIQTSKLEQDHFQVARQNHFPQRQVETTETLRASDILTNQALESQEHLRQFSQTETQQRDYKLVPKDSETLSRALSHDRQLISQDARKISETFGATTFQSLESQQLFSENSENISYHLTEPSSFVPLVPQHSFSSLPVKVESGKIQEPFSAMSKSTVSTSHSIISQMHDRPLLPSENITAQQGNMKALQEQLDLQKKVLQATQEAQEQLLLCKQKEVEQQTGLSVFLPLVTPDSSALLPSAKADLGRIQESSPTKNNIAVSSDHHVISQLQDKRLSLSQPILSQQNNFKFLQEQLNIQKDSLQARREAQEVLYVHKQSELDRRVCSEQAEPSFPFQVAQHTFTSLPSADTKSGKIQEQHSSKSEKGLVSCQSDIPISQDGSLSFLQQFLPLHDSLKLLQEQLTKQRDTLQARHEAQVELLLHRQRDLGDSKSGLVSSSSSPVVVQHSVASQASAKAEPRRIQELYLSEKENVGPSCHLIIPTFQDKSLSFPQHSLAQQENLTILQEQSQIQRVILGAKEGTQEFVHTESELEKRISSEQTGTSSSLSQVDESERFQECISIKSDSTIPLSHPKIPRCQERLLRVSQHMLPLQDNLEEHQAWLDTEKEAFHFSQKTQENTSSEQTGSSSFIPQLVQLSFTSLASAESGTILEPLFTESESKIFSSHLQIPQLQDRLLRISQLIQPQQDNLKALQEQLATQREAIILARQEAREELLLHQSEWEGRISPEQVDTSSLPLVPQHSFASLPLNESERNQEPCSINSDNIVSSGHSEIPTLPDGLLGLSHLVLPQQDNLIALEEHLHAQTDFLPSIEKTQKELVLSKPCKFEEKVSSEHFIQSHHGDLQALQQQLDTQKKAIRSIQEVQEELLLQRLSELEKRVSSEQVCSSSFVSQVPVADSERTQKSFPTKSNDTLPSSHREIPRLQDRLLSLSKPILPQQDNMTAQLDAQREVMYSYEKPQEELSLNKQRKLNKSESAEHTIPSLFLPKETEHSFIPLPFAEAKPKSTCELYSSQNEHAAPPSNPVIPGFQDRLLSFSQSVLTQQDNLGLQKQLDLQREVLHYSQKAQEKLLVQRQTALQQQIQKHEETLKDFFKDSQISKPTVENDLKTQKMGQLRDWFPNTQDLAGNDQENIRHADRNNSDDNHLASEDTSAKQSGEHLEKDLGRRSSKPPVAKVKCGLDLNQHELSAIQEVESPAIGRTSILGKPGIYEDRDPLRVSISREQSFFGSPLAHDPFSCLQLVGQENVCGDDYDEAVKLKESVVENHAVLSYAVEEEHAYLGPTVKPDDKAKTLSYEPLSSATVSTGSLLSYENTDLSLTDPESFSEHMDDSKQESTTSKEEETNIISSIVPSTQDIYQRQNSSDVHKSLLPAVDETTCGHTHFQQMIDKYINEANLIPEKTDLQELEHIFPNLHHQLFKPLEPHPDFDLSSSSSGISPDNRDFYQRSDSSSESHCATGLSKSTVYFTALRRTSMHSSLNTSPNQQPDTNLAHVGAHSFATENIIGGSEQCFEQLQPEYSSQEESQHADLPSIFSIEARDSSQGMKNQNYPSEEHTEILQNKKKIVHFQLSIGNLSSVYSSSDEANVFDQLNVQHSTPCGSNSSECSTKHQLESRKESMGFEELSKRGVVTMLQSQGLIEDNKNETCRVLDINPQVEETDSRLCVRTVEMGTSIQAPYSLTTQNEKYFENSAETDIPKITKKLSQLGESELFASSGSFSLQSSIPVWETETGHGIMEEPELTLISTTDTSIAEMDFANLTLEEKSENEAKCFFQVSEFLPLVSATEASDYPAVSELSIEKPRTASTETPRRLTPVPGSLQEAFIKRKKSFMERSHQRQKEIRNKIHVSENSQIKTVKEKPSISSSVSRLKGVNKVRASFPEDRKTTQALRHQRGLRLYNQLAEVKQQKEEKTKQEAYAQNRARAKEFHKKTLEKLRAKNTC
UniProt Q9BZE9, whole entry: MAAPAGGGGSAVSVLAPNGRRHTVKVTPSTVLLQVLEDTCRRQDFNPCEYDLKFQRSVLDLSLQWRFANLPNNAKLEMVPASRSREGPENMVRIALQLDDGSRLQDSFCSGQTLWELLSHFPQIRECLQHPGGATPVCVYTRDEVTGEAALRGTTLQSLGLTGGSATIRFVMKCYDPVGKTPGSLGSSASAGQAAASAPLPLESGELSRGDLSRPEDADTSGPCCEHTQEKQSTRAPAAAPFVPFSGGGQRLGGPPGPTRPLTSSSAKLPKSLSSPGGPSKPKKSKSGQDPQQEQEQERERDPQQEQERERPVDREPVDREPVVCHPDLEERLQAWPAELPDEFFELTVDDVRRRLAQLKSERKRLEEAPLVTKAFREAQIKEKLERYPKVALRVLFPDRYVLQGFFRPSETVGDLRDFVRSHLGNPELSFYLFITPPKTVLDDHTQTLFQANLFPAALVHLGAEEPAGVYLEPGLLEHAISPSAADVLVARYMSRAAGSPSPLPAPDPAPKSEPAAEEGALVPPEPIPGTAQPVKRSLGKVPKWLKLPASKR
UniProt P22670: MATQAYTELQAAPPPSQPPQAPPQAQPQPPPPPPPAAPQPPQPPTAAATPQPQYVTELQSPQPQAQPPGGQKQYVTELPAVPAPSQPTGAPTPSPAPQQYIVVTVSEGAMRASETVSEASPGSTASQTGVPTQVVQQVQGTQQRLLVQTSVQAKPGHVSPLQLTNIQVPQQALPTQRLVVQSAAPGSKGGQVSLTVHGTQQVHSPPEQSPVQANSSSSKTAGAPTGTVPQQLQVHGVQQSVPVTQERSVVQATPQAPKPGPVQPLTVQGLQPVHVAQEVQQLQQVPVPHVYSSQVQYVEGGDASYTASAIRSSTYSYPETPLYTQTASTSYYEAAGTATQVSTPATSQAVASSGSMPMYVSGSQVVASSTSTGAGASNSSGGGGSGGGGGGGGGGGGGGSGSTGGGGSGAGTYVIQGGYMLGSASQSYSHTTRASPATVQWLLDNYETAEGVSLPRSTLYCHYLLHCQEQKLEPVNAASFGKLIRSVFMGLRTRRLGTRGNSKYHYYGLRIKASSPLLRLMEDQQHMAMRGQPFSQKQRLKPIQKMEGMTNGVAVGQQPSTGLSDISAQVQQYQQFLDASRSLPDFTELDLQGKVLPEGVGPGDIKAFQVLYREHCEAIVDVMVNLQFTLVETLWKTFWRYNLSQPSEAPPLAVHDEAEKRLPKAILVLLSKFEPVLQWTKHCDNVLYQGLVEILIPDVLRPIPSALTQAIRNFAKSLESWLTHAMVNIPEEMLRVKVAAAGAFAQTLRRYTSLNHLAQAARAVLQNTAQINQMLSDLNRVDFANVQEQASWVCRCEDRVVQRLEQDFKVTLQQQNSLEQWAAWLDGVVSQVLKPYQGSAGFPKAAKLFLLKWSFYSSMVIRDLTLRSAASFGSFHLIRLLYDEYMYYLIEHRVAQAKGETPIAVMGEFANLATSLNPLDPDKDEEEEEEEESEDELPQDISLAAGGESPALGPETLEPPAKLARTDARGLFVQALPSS
UniProt Q9Y5B0: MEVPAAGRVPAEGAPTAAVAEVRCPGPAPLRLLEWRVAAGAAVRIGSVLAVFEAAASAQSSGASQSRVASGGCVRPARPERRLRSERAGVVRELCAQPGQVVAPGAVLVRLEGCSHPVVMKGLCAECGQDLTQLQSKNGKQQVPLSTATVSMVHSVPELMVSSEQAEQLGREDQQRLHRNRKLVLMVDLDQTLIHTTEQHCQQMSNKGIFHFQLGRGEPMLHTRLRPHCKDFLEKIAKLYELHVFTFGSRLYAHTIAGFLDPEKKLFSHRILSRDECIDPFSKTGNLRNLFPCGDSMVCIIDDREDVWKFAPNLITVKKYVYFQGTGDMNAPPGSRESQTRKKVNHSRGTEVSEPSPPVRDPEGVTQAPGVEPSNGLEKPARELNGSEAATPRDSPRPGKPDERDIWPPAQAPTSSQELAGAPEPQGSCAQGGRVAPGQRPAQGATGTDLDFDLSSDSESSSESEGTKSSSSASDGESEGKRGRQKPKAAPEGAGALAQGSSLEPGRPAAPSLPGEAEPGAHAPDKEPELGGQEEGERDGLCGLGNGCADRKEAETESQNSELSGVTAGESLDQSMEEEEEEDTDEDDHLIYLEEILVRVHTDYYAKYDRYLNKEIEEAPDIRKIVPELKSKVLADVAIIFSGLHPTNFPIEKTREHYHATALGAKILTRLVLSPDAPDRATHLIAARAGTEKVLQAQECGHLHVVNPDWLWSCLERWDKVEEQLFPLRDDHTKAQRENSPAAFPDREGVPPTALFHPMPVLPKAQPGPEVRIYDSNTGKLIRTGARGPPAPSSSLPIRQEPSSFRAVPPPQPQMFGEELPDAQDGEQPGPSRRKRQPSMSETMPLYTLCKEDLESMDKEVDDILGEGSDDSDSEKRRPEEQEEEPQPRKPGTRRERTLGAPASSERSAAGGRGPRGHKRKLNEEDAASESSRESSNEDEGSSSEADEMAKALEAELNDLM
UniProt P54687: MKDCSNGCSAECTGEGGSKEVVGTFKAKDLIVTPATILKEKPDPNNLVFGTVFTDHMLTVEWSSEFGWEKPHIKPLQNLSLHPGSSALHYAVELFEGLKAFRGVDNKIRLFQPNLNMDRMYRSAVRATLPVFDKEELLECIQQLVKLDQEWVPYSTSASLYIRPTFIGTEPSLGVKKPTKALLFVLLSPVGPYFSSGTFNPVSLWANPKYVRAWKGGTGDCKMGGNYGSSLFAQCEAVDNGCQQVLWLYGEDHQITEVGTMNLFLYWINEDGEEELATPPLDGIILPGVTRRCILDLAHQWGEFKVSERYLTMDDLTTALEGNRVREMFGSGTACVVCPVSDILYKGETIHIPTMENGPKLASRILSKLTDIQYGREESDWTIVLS
UniProt A6NIE6: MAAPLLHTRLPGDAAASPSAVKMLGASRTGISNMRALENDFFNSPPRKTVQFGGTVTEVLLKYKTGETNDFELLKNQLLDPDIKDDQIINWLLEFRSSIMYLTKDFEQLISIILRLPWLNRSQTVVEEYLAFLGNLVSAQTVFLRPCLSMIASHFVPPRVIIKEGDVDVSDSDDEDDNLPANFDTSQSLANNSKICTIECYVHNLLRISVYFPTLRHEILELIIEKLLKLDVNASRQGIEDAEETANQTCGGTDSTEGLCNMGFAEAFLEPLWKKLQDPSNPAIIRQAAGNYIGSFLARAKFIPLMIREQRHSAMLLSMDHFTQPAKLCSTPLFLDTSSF

Compound: [O-][N+](C(C1=C(C(O)=C2)NC(C(C=C3)=CC=C3Cl)C4C1C=CC4)=C2Cl)=O
Assay: melting temperature shift (compound 7 minus DMSO); higher = compound stabilises the protein
Details: 10 µM
Procedure: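 Thermal proteome profiling (TMT mass spectrometry) in intact DAOY medulloblastoma cells or DAOY lysates treated with 10 µM compound 7 or DMSO, heated at 10 temperatures from 40.5 to 73.8 °C for 3 min. Melting curves were fitted with the Bioconductor TPP package, and the melting point difference between compound and vehicle is reported per protein (single curve per condition).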

[1] = system: DAOY cell lysate, treatment time: 20 min, 4 °C
[2] = system: intact DAOY cells, treatment time: 90 min, 37 °C

| Target | melting temperature shift [1] [°C] | melting temperature shift [2] [°C] |
| --- | --- | --- |
| ATG13 (UniProt O75143) | 1.01 | 1.82 |
| FAM162A (UniProt Q96A26) | 0.664 | – |
| ALDH1B1 (UniProt P30837) | -0.409 | -0.808 |
| UniProt P15090 | -1.28 | -0.195 |
| NDUFB8 (UniProt O95169) | 0.0157 | 0.813 |
| UniProt Q9UDX5 | -4.52 | -2.78 |
| UniProt Q13043 | 0.227 | -0.34 |
| CCAR2 (UniProt Q8N163) | -0.866 | 0.102 |
| ATP2B1 (UniProt P20020) | 0.813 | -0.788 |
| OXA1L (UniProt Q15070) | 0.417 | 0.476 |
| PPME1 (UniProt Q9Y570) | -0.332 | -0.12 |
| PSMA4 (UniProt P25789) | – | 1.56 |
| UniProt Q6ZUV0 | – | -0.653 |
| PNO1 (UniProt Q9NRX1) | 0.694 | 0.389 |
| WDR82 (UniProt Q6UXN9) | -0.537 | 1.54 |
| BCKDK (UniProt O14874) | -0.873 | – |
| CSTF2 (UniProt P33240) | -0.874 | -2.03 |
| LEMD2 (UniProt Q8NC56) | 0.833 | -0.894 |
| SMC2 (UniProt O95347) | -0.25 | -0.652 |
| HSD17B10 (UniProt Q99714) | 0.646 | 3.61 |
| ATL2 (UniProt Q8NHH9) | 0.867 | -0.139 |
| UniProt Q6ZT62 | – | -1.05 |
| ATXN2L (UniProt Q8WWM7) | -0.128 | -0.276 |

| Target | melting temperature shift [1] [°C] | melting temperature shift [2] [°C] |
| --- | --- | --- |
| EFL1 (UniProt Q7Z2Z2) | -0.62 | 0.717 |
| RELB (UniProt Q01201) | – | 1.28 |
| UniProt Q03164 | 2.12 | – |
| PGAM5 (UniProt Q96HS1) | 1.18 | -0.377 |
| ITGA5 (UniProt P08648) | 1.81 | – |
| UniProt Q9C0D2 | – | -0.684 |
| PMM1 (UniProt Q92871) | -0.404 | 0.454 |
| BROX (UniProt Q5VW32) | -0.137 | -0.222 |
| UniProt Q7Z3H0 | – | -0.362 |
| UniProt Q6ZTN6 | – | -1 |
| UniProt Q9UNH6 | 0.242 | -1.3 |
| UniProt Q4LDG9 | -0.559 | -0.172 |
| UniProt Q68D10 | -0.365 | – |
| LMAN2 (UniProt Q12907) | -0.103 | -1.07 |
| CDC26 (UniProt Q8NHZ8) | -0.0279 | – |
| UniProt Q8N4C6 | – | -0.758 |
| GLS (UniProt O94925) | 0.132 | -1.59 |
| TOM1L1 (UniProt O75674) | -1.49 | – |
| HGS (UniProt O14964) | -0.0684 | -0.287 |
| UniProt Q9Y3L3 | – | -0.914 |
| RSL1D1 (UniProt O76021) | 0.807 | -0.33 |
| MTM1 (UniProt Q13496) | 0.587 | 0.62 |
| NAV1 (UniProt Q8NEY1) | -0.528 | -0.615 |

As a working copy, some entries already given.

| Target | melting temperature shift [1] [°C] | melting temperature shift [2] [°C] |
| --- | --- | --- |
| UniProt Q9UNH6 | 0.242 | -1.3 |
| UniProt Q4LDG9 | -0.559 | -0.172 |
| UniProt Q68D10 | -0.365 | – |
| LMAN2 (UniProt Q12907) | -0.103 | -1.07 |
| CDC26 (UniProt Q8NHZ8) | -0.0279 | – |

More records:

| Target | melting temperature shift [1] [°C] | melting temperature shift [2] [°C] |
| --- | --- | --- |
| PLIN2 (UniProt Q99541) | 1.25 | 1.67 |
| RIPK1 (UniProt Q13546) | -0.447 | -1.17 |
| CAD (UniProt P27708) | -0.526 | -0.411 |
| MRPL50 (UniProt Q8N5N7) | -0.946 | -1 |
| KNTC1 (UniProt P50748) | -0.957 | -0.441 |
| WRB (UniProt O00258) | – | -0.801 |
| UniProt P50443 | 1.29 | 0.248 |
| CAPNS1 (UniProt P04632) | -1.31 | 0.756 |
| ASPSCR1 (UniProt Q9BZE9) | -0.269 | -0.797 |
| HIF1AN (UniProt Q9NWT6) | -1.09 | 0.455 |
| HEXA (UniProt P06865) | 0.288 | -1.4 |
| UniProt P0DJD1 | – | -1.81 |
| AP2M1 (UniProt Q96CW1) | -0.731 | 0.0466 |
| UniProt Q96NB2 | 0.841 | – |
| RFX1 (UniProt P22670) | -0.0956 | 1.37 |
| UniProt O15525 | – | -0.0245 |
| CTDP1 (UniProt Q9Y5B0) | -0.165 | -1.58 |
| NUDC (UniProt Q9Y266) | -0.355 | 0.144 |
| NARS (UniProt O43776) | -0.533 | -1.8 |
| GALK2 (UniProt Q01415) | 0.195 | – |
| MDH2 (UniProt P40926) | 0.7 | -0.126 |
| UniProt P41212 | 0.0877 | – |
| EMC1 (UniProt Q8N766) | 0.791 | -0.305 |

| Target | melting temperature shift [1] [°C] | melting temperature shift [2] [°C] |
| --- | --- | --- |
| UniProt O43422 | -1.4 | -1.24 |
| TBRG4 (UniProt Q969Z0) | -0.711 | -0.199 |
| GOLGA5 (UniProt Q8TBA6) | 0.373 | -0.282 |
| UniProt Q99972 | – | 0.799 |
| RRM2B (UniProt Q7LG56) | 0.82 | -0.467 |
| ATG5 (UniProt Q9H1Y0) | 0.193 | 0.454 |
| PFKFB2 (UniProt O60825) | – | -1.52 |
| UniProt Q8NG04 | -2.05 | – |
| UniProt Q13478 | 0.0637 | – |
| RIOK3 (UniProt O14730) | – | -1.35 |
| DDAH1 (UniProt O94760) | -0.955 | 1.01 |
| SNRPA (UniProt P09012) | -0.0318 | -0.194 |
| TSFM (UniProt P43897) | 0.518 | -0.264 |
| UniProt P39210 | 0.714 | 3.07 |
| UniProt P54687 | -0.884 | -1.9 |
| EIF3M (UniProt Q7L2H7) | -0.33 | 0.148 |
| UniProt A6NIE6 | – | -1.06 |
| DDX6 (UniProt P26196) | -0.0603 | 0.205 |
| SLC25A46 (UniProt Q96AG3) | – | -0.481 |
| RPL18 (UniProt Q07020) | 0.138 | -0.319 |
| INPP5K (UniProt Q9BT40) | 0.52 | – |
| UniProt P45877 | -0.0929 | 1.55 |
| PTPN2 (UniProt P17706) | -0.755 | -0.876 |

Single values are uncertain, as repeats are few or missing.
